Assay results as given in publication PMC5489165, “Identification of benzazole compounds that induce HIV-1 transcription” (PLoS ONE, 2017).

Test: Caco-2 assay
Type: in vitro ADME
Details: human, Caco-2, Caco-2 Papp
Protocol: Caco-2 cells obtained from ATCC were plated on filters of a 24-well Boyden chamber and allowed to replicate for five days. Prior to initiating a study, the integrity of the cell layer was assessed by measuring the transepithelial electrical resistance (TEER) values. […] After 1h, medium was removed from the bottom chamber. After completion of the assay, the integrity of the cell layer was measured by transfer of the fluorescent dye, Lucifer yellow, across the cell layer. Samples taken from the apical chamber at the start of the study and from the basal chamber at the end of the study were assessed for drug levels using LC-MS/MS technology and used to calculate the apparent permeability (Papp).

Papp A→B at 1 h, 10 μM: 0.23 ×10⁻⁶ cm/s
SMILES: CC(C)NCC(O)COc1ccc(CC(N)=O)cc1 (stereo not shown) [Atenolol, reference compound]
